Laboratory results: paper PMC4330362, “The ATP-mediated formation of the YgjD–YeaZ–YjeE complex is required for the biosynthesis of tRNA t^6A in Escherichia coli” (Nucleic Acids Research, 2015)
These are yes or no findings as the source states them, for the method shown. Each block holds one molecule with its values, some of them ahead of it.

Experiments:
[1] = target: YgjD^F100E (Escherichia coli K-12) (UniProt P05852); experiment: SEC; HiLoad 16/60 Superdex 75 pg; single proteins and equimolar mixture; both purified
[2] = target: YgjD^S97E (Escherichia coli K-12) (UniProt P05852); experiment: as above
[3] = target: YgjD^S97R (Escherichia coli K-12) (UniProt P05852); experiment: as above
[4] = target: YgjD^S97E (Escherichia coli K-12) (UniProt P05852); experiment: ITC; YgjD as 'titrant' (20-30 uM), YeaZ as 'injectant' (200-360 uM); in absence of nucleotides (ADP or ATP); both purified
[5] = target: YgjD^F100E (Escherichia coli K-12) (UniProt P05852); experiment: native gel or EMSA; 1.2% agarose native gel, 30 mM Tris–HCl pH 8.0, 50 mM glycine, on ice (ambient 8°C), Coomassie staining; no nucleotide added; molar ratio 1:1; both purified
[6] = target: YgjD^S97E (Escherichia coli K-12) (UniProt P05852); experiment: as above
[7] = target: YgjD^S97R (Escherichia coli K-12) (UniProt P05852); experiment: as above
[8] = target: YgjD^S97E (Escherichia coli K-12) (UniProt P05852); experiment: SEC + other: SAXS; HPLC gel filtration coupled to SAXS; in presence of 1.0 mM ATP and 2.0 mM MgCl2; YgjD–YeaZ and YjeE mixed 1:4; both purified
[9] = target: YeaZ (TsaB) (Escherichia coli K-12) (UniProt P76256); experiment: native gel or EMSA; 1.2% agarose native gel, 30 mM Tris–HCl pH 8.0, 50 mM glycine, on ice (ambient 8°C), Coomassie staining; no nucleotide added; molar ratio 1:1; both purified
[10] = target: YgjD (TsaD) (Escherichia coli K-12) (UniProt P05852); experiment: as above

binding [1]: no binding | binding [2]: no binding | binding [3]: no binding | binding [4]: no binding | binding [5]: no binding | binding [6]: no binding | binding [7]: no binding
Molecule: YeaZ (TsaB) (from UniProt P76256 1-231)

binding [1]: no binding
Molecule: YgjD^F100E (from UniProt P05852 1-337) (enzyme)

binding [2]: no binding | binding [8]: no binding
Molecule: YgjD^S97E (from UniProt P05852 1-337) (enzyme)

binding [3]: no binding
Molecule: YgjD^S97R (from UniProt P05852 1-337) (enzyme)

binding [9]: no binding | binding [10]: no binding
B1: YrdC (TsaC) (enzyme, UniProt P45748 1-190)
chain: MNNNLQRDAIAAAIDVLNEERVIAYPTEAVFGVGCDPDSETAVMRLLELKQRPVDKGLILIAANYEQLKPYIDDTMLTDVQRETIFSRWPGPVTFVFPAPATTPRWLTGRFDSLAVRVTDHPLVVALCQAYGKPLVSTSANLSGLPPCRTVDEVRAQFGAAFPVVPGETGGRLNPSEIRDALTGELFRQG
